Experimental data as given in article PMC7603314, “Broad-complex transcription factor mediates opposing hormonal regulation of two phylogenetically distant arginine kinase genes in Tribolium castaneum” (Communications Biology, 2020).

System: GST-TcBR-C-z2 (Tribolium castaneum)
Test: EMSA
Conditions: Chemiluminescent EMSA kit (Beyotime), per manufacturer; pH and temperature not stated; unlabeled probe competition done, outcome not given; recombinant protein; protein details: N-terminal GST (pGEX4T-1); label: biotin

Row | Sequence | binding result
1 | TCTCCCTTATTTATTGAAATATAAATAGAATTCTGAAATT (double strand) [TcAK2 promoter probe] | binds
2 | CCGGGAGAGGGGATTCTGCAAATAGATTTTTATCAGTTAATTCCTT (double strand) [TcAK1 promoter probe] | binds

The exact form of at least one protein or probe is not confirmed.
